Experimental data published in patent US20170112760A1, “CELL DELIVERY SYSTEM AND METHOD” (The Queen's University of Belfast, priority 2014, published 2017).
At least one peptide structure holds a part that was inferred or is arguable (an end, a ring closure or a residue). Ends that are not written are not given here.

Columns and labels:
[1] = test system: Runx2 protein; assay: Western blotting for Runx2 protein knockdown in PC-3 cells; type: cell-based; details: 100 nM siRNA
[2] = Gel retardation assay; type: physicochemical

Sequence: WEARLARALARALARHLARALARALRACEA [RALA]
- knockdown of Runx2 protein expression [1]: comparable levels of knockdown to the commercial RNA transfection reagent, Oligofectamine
- N:P ratio at which DNA is fully condensed / neutralised [2]: above 4
